Experiment in all cases: glycan array binding signal (z-score within array); higher = stronger binding
Holding throughout (details): glycan notation: IUPAC condensed, linker removed

Assay [1] has as its target Gal(b1-4)GlcNAc(b1-3)Gal(b1-4)GlcNAc(b1-3)Gal(b1-4)GlcNAc(b1-2)Man(a1-3)[Gal(b1-4)GlcNAc(b1-3)Gal(b1-4)GlcNAc(b1-3)Gal(b1-4)GlcNAc(b1-2)Man(a1-6)]Man(b1-4)GlcNAc(b1-4)GlcNAc. In outline:
(§1)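 Columns mapping to the same glycan were averaged after glycan names were converted to IUPAC-condensed notation. The data come from 3228 arrays in the Consortium for Functional Glycomics database, limited to those with an available protein sequence. Binding is reported as a within-array Z-score averaged across arrays of one protein sequence and across linkers.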

Assay [2] has as its target Gal(b1-4)GlcNAc(b1-3)Gal(b1-4)GlcNAc(b1-3)Gal(b1-4)GlcNAc(b1-2)Man(a1-3)[Gal(b1-4)GlcNAc(b1-3)Gal(b1-4)GlcNAc(b1-3)Gal(b1-4)GlcNAc(b1-2)Man(a1-6)]Man(b1-4)GlcNAc(b1-4)[Fuc(a1-6)]GlcNAc. The method, boiled down:
as §1

Assay [3] concerns the target Gal(b1-4)GlcNAc(b1-3)Gal(b1-4)GlcNAc(b1-3)Gal(b1-4)GlcNAc(b1-2)[Gal(b1-4)GlcNAc(b1-3)Gal(b1-4)GlcNAc(b1-3)Gal(b1-4)GlcNAc(b1-6)]Man(a1-6)[Gal(b1-4)GlcNAc(b1-3)Gal(b1-4)GlcNAc(b1-3)Gal(b1-4)GlcNAc(b1-2)Man(a1-3)]Man(b1-4)GlcNAc(b1-4)[Fuc(a1-6)]GlcNAc. The method, boiled down:
as §1

The target of assay [4] is Gal(b1-4)GlcNAc(b1-3)Gal(b1-4)GlcNAc(b1-3)Gal(b1-4)GlcNAc(b1-3)Gal(b1-4)GlcNAc(b1-2)Man(a1-3)[Gal(b1-4)GlcNAc(b1-3)Gal(b1-4)GlcNAc(b1-3)Gal(b1-4)GlcNAc(b1-3)Gal(b1-4)GlcNAc(b1-2)Man(a1-6)]Man(b1-4)GlcNAc(b1-4)GlcNAc. The method, boiled down: as §1
In assay [5] the target is Gal(b1-4)GlcNAc(b1-3)Gal(b1-4)GlcNAc(b1-3)Gal(b1-4)GlcNAc(b1-3)Gal(b1-4)GlcNAc(b1-2)Man(a1-3)[Gal(b1-4)GlcNAc(b1-3)Gal(b1-4)GlcNAc(b1-3)Gal(b1-4)GlcNAc(b1-3)Gal(b1-4)GlcNAc(b1-2)Man(a1-6)]Man(b1-4)GlcNAc(b1-4)[Fuc(a1-6)]GlcNAc. In outline:
as §1

In assay [6] the target is Gal(b1-4)GlcNAc(b1-3)Gal(b1-4)GlcNAc(b1-3)Gal(b1-4)GlcNAc(b1-3)Gal(b1-4)GlcNAc(b1-2)[Gal(b1-4)GlcNAc(b1-3)Gal(b1-4)GlcNAc(b1-3)Gal(b1-4)GlcNAc(b1-3)Gal(b1-4)GlcNAc(b1-6)]Man(a1-6)[Gal(b1-4)GlcNAc(b1-3)Gal(b1-4)GlcNAc(b1-3)Gal(b1-4)GlcNAc(b1-3)Gal(b1-4)GlcNAc(b1-2)Man(a1-3)]Man(b1-4)GlcNAc(b1-4)[Fuc(a1-6)]GlcNAc. In outline: as §1
The target in assay [7] is Gal(b1-4)GlcNAc(b1-3)Gal(b1-4)GlcNAc(b1-3)Gal(b1-4)GlcNAc(b1-3)Gal(b1-4)GlcNAc(b1-3)Gal(b1-4)GlcNAc(b1-2)Man(a1-3)[Gal(b1-4)GlcNAc(b1-3)Gal(b1-4)GlcNAc(b1-3)Gal(b1-4)GlcNAc(b1-3)Gal(b1-4)GlcNAc(b1-3)Gal(b1-4)GlcNAc(b1-2)Man(a1-6)]Man(b1-4)GlcNAc(b1-4)GlcNAc. The method, boiled down:
as §1

Assay [8] has as its target Gal(b1-4)GlcNAc(b1-3)Gal(b1-4)GlcNAc(b1-3)Gal(b1-4)GlcNAc(b1-3)Gal(b1-4)GlcNAc(b1-3)Gal(b1-4)GlcNAc(b1-2)Man(a1-3)[Gal(b1-4)GlcNAc(b1-3)Gal(b1-4)GlcNAc(b1-3)Gal(b1-4)GlcNAc(b1-3)Gal(b1-4)GlcNAc(b1-3)Gal(b1-4)GlcNAc(b1-2)Man(a1-6)]Man(b1-4)GlcNAc(b1-4)[Fuc(a1-6)]GlcNAc. In outline:
as §1

The target in assay [9] is Gal(b1-4)GlcNAc(b1-3)Gal(b1-4)GlcNAc(b1-3)Gal(b1-4)GlcNAc(b1-3)Gal(b1-4)GlcNAc(b1-3)Gal(b1-4)GlcNAc(b1-2)[Gal(b1-4)GlcNAc(b1-3)Gal(b1-4)GlcNAc(b1-3)Gal(b1-4)GlcNAc(b1-3)Gal(b1-4)GlcNAc(b1-3)Gal(b1-4)GlcNAc(b1-6)]Man(a1-6)[Gal(b1-4)GlcNAc(b1-3)Gal(b1-4)GlcNAc(b1-3)Gal(b1-4)GlcNAc(b1-3)Gal(b1-4)GlcNAc(b1-3)Gal(b1-4)GlcNAc(b1-2)Man(a1-3)]Man(b1-4)GlcNAc(b1-4)[Fuc(a1-6)]GlcNAc. The method, boiled down: as §1

The target of assay [10] is Gal(b1-4)GlcNAc(b1-3)Gal(b1-4)GlcNAc(b1-3)Gal(b1-4)GlcNAc(b1-3)Gal(b1-4)GlcNAc(b1-3)Gal(b1-4)GlcNAc(b1-3)Gal(b1-4)GlcNAc(b1-2)Man(a1-3)[Gal(b1-4)GlcNAc(b1-3)Gal(b1-4)GlcNAc(b1-3)Gal(b1-4)GlcNAc(b1-3)Gal(b1-4)GlcNAc(b1-3)Gal(b1-4)GlcNAc(b1-3)Gal(b1-4)GlcNAc(b1-2)Man(a1-6)]Man(b1-4)GlcNAc(b1-4)GlcNAc. The method, boiled down: as §1
The target in assay [11] is Gal(b1-4)GlcNAc(b1-3)Gal(b1-4)GlcNAc(b1-3)GalNAc. The method, boiled down: as §1
The target of assay [12] is Gal(b1-4)GlcNAc(b1-3)Gal(b1-4)GlcNAc(b1-3)[Gal(b1-4)GlcNAc(b1-3)Gal(b1-4)GlcNAc(b1-6)]GalNAc. In outline: as §1
Assay [13] deals with Gal(b1-4)GlcNAc(b1-3)Gal(b1-4)GlcNAc(b1-6)[Gal(b1-3)]GalNAc. In outline:
as §1

In assay [14] the target is Gal(b1-4)GlcNAc(b1-3)Gal(b1-4)[Fuc(a1-3)]GlcNAc(b1-3)Gal(b1-4)[Fuc(a1-3)]GlcNAc. In outline: as §1
In assay [15] the target is Gal(b1-4)GlcNAc(b1-3)GalNAc. The method, boiled down: as §1
Assay [16] addresses Gal(b1-4)GlcNAc(b1-3)[Fuc(a1-3)GlcNAc(b1-6)]Gal(b1-4)Glc. In outline:
as §1

The target of assay [17] is Gal(b1-4)GlcNAc(b1-3)[Gal(b1-4)GlcNAc(b1-6)]Gal(b1-4)GlcNAc. The method, boiled down:
as §1

The target of assay [18] is Gal(b1-4)GlcNAc(b1-3)[GlcNAc(b1-6)]Gal(b1-4)GlcNAc. The method, boiled down:
as §1

Assay [19] has as its target Gal(b1-4)GlcNAc(b1-6)Gal(b1-4)GlcNAc. In outline: as §1

The other results are listed elsewhere or left out.

B1: SfaEH (Escherichia coli), Q1RDG5 (protein)
chain: LLCRNNQTGQVFNSGDTSFRVNVSPVVQYDKSISVLDLSQLVSCQNEDSTGQNYDYLKILKGSGFSPALDTKTYGRLDFTSRPTGYARQLPLQFDLQVTEAFYQYGVWKPFPAKLYLYPAPGVFGKVINNGDLLATLYVNKFSTKGQEAGERNFTWRFYATNDVYIQTGTCRVSSNNVKVDLPSYPGGPVTVPLTVRCDQTQSVSYTLSGPVTGSGNTVFANTAASGSGGVGIQLSDNVGPVPAGQPRSLGQVGSSPVSLGLKASYALTGQASPTPGAVQSVINVTFSYN
On to B1, for which the “glycan array binding signal (z-score)” value in assay [1] was 1.06; in assay [2] it was 0.461; in assay [3], 1.36; in assay [4], 0.992; in assay [5], -0.08; in assay [6] it was 3.01. Moreover, the “glycan array binding signal (z-score)” value is 2.05 in assay [7]; 0.112 in assay [8]; 1.75 in [9]; -0.011 in assay [10]; 1.52 in assay [11]; -0.61 in assay [12]. Besides, the “glycan array binding signal (z-score)” value was -0.15 in assay [13]; -0.017 in [14]; -0.813 in assay [15]; -0.173 in [16]; 0.131 in assay [17]; -0.353 in [18]. Further, the “glycan array binding signal (z-score)” value in assay [19] was -1.15.

For the origin of these results see the supplement of paper PMC8728848.
